These results are taken from paper PMC11003700.

Sequences of proteins named here, by UniProt entry; tags and fusion partners are left off.
UniProt P04198: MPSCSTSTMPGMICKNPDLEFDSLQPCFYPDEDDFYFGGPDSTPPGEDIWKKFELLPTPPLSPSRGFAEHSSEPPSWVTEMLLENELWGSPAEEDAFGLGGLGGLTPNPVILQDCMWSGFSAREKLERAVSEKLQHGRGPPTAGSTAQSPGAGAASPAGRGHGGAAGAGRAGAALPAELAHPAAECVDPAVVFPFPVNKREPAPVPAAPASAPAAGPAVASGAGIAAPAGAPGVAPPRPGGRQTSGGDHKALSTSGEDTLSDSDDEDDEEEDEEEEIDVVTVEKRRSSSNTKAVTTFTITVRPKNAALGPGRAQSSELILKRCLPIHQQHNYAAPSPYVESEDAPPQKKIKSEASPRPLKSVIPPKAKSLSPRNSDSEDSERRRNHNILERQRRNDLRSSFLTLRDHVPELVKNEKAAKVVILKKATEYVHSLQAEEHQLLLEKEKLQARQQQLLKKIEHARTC
UniProt Q96KQ7: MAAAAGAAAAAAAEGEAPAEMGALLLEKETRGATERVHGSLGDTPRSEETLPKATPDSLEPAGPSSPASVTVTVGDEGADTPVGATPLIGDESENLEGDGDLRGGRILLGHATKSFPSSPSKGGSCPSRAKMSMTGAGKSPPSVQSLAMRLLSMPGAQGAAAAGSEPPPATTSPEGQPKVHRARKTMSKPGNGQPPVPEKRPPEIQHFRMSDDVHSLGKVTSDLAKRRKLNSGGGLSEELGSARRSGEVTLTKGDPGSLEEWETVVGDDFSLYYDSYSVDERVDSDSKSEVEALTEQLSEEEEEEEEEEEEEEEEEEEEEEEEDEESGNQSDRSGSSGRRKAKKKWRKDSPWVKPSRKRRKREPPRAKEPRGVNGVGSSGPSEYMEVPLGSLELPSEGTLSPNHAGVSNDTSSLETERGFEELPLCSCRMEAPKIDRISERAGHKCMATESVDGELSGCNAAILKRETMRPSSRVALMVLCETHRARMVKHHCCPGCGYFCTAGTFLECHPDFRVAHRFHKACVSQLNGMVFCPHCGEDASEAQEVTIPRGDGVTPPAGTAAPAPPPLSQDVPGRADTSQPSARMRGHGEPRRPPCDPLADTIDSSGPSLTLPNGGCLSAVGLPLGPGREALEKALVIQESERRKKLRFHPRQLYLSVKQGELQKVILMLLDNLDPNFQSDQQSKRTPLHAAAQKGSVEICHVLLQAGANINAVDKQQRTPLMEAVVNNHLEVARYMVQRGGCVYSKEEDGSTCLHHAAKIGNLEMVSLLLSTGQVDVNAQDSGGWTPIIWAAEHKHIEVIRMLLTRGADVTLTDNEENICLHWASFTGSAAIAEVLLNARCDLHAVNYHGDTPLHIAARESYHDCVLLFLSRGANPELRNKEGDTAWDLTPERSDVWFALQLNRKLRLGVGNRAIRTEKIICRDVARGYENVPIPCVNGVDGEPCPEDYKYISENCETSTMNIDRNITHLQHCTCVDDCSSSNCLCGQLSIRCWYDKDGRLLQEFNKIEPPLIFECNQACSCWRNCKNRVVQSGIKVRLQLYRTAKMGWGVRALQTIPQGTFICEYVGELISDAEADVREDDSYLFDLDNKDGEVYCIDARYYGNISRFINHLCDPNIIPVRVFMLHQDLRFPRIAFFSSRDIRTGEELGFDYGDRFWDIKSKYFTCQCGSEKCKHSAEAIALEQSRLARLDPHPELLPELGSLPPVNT
UniProt P61244: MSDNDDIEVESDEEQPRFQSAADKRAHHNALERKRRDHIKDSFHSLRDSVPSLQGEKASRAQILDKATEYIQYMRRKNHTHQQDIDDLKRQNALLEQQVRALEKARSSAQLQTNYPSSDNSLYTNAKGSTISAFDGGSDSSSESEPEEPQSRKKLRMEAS
UniProt Q9Y4A5: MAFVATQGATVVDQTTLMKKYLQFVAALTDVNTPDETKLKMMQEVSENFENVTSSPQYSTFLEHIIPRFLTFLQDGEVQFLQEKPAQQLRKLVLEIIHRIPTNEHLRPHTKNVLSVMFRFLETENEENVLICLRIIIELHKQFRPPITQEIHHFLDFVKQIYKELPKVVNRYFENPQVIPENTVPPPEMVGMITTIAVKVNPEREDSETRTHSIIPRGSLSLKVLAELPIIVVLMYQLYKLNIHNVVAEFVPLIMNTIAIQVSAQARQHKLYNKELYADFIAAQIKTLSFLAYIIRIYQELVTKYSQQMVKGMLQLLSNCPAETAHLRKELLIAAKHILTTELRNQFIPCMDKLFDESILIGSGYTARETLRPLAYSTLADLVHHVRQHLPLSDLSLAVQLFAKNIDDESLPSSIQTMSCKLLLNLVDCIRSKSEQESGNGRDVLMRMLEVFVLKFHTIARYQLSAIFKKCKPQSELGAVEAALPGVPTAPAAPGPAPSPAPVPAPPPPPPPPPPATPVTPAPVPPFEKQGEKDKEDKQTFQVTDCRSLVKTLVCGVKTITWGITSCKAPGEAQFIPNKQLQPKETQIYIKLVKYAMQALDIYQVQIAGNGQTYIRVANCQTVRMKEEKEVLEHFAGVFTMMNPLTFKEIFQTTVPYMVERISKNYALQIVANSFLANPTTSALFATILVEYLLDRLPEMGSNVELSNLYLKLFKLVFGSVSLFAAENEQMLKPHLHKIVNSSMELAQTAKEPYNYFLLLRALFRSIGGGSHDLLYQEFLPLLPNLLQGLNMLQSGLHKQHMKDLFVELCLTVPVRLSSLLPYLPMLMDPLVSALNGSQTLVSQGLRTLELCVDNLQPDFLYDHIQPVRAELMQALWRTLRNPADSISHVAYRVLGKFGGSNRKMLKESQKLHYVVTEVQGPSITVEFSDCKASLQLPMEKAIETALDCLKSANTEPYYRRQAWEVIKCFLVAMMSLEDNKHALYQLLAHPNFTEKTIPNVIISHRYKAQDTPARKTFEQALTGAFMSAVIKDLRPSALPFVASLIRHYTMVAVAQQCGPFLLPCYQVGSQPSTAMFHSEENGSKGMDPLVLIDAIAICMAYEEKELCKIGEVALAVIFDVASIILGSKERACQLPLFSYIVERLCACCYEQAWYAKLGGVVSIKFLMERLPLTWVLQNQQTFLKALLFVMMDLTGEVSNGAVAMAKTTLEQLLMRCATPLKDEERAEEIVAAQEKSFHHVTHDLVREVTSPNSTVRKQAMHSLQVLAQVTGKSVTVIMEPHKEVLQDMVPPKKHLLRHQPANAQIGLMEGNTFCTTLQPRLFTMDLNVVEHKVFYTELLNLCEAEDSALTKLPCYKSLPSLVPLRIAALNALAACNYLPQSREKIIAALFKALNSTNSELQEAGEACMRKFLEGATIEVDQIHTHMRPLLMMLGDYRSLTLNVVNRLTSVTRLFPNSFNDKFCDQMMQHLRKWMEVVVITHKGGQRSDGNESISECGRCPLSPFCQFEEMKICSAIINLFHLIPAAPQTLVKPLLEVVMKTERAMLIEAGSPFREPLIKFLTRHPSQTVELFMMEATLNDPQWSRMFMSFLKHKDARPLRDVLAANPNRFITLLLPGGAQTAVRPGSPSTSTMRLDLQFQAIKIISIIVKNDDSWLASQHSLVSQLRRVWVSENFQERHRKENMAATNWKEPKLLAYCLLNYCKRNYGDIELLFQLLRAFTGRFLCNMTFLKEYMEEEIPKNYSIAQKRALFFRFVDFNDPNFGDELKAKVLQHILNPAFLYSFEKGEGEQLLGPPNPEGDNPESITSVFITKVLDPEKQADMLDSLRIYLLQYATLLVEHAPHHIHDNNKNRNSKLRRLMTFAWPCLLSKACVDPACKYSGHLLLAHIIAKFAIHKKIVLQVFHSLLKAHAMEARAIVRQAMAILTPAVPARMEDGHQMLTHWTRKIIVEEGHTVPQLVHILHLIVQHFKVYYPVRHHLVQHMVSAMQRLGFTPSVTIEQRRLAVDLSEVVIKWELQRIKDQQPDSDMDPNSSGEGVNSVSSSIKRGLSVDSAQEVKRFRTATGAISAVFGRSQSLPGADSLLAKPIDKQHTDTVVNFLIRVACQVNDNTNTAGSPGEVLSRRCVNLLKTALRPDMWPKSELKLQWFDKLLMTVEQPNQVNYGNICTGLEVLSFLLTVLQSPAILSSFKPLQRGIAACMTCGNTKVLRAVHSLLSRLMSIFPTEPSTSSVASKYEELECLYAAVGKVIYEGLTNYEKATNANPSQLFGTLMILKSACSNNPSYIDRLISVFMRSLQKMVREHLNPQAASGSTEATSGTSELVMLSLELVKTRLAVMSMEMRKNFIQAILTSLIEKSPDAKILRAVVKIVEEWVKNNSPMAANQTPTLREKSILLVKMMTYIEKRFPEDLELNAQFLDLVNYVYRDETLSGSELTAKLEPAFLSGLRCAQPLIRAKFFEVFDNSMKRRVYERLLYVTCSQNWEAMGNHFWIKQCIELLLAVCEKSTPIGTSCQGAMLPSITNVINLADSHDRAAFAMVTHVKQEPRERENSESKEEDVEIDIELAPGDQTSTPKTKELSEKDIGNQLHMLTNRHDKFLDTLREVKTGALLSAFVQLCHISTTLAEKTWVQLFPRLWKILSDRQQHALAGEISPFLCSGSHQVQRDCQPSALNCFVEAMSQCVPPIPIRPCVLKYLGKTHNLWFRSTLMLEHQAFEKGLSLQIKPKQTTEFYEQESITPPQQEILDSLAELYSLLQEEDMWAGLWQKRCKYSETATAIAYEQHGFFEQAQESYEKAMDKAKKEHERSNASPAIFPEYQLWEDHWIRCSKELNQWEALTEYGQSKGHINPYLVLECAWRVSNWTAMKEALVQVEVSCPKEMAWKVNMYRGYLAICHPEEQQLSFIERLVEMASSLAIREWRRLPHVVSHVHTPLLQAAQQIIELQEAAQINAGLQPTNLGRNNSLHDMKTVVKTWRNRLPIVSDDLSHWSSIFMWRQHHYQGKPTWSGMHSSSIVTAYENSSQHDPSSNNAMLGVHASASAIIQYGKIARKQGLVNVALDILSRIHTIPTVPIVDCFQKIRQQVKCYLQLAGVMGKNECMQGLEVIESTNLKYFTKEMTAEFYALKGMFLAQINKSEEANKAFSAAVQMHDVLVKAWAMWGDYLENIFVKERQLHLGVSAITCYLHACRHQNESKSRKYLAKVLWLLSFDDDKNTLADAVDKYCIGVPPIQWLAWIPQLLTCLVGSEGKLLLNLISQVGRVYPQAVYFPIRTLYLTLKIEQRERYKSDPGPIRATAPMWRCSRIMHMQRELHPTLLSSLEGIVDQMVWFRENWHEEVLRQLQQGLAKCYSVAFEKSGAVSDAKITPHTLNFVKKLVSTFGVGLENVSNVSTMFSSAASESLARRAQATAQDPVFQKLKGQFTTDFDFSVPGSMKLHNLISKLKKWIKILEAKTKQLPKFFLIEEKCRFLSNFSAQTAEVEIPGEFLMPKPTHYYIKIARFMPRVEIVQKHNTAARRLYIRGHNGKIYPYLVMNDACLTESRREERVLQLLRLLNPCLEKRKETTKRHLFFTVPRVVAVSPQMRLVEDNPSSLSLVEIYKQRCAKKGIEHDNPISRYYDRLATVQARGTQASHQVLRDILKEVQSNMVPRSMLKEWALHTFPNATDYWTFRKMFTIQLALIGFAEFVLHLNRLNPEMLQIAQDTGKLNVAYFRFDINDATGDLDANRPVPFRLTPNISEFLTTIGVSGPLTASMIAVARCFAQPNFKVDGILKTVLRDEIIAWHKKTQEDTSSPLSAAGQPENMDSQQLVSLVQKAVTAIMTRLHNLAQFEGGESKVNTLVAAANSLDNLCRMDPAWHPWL

These are yes or no findings as the source states them, for the method shown. Binding seen in cells or lysates may run through a third protein. Here binding means that the protein was enriched with, or labelled near, the bait; the list need not be complete.

The experiment concerns the target MYCN (N-Myc) (human (endogenous in IMR32)) (UniProt P04198). Put plainly: affinity purification with mass spectrometry; endogenous MYCN immunoprecipitated from IMR32 lysate (20 mg) with two different MYCN antibodies or normal IgG on Dynabeads M-280 sheep anti-mouse IgG; lysis buffer 50 mM Tris-HCl pH 7.5, 137 mM NaCl, 1 mM DTT, 1 mM EDTA, 0.5% Triton X-100; 4°C, 4 h; no Benzonase; differentially pulled-down gel bands sequenced by mass spectrometry.
As to “G9a (histone methyltransferase, also known as EHMT2) (from UniProt Q96KQ7 1-1210) (enzyme)”, the binding entry is “binds”.
With MAX (from UniProt P61244 1-160) the entry was “binds”.
Regarding TRRAP (from UniProt Q9Y4A5 1-3859), the binding entry was “binds”.
With “topoisomerase IIB (TOP2B) (from UniProt Q02880 1-1626) (enzyme)” the entry was “binds”.
